Compound in the experiment: COC(=O)/C=C/c1ccccc1 [methyl cinnamate]
The experiment can be described thus: log2 ratio of iodoacetamide-alkyne labeling of the cysteine site, DMSO over compound (competition); higher = stronger covalent engagement of the cysteine by the compound, active = 1 or more. Particulars: 500 µM; treatment time 1 h; system: HEK293T cell lysate. The essentials: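 The log2 competition ratio per cysteine is defined as mean reporter intensity in control channels over mean reporter intensity in compound channels. Lysate from HEK293T cells (2 mg/mL) received electrophile (500 µM) or vehicle for 1 h at ambient temperature, followed by iodoacetamide alkyne for 1 h. Samples were clicked to sCIP-TMT reagents, pooled, trypsin-digested overnight at 37 °C, streptavidin-enriched, acid-eluted and run on Orbitrap Eclipse LC-MS/MS with FAIMS, with quantification in FragPipe. Three replicates with duplicate channels were used, and any cysteine quantified in only one replicate was excluded.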

Sequences of proteins named here, by UniProt entry; tags and fusion partners are left off. A change or cut given only in a name is not applied to a line headed by its entry.
UniProt O95861: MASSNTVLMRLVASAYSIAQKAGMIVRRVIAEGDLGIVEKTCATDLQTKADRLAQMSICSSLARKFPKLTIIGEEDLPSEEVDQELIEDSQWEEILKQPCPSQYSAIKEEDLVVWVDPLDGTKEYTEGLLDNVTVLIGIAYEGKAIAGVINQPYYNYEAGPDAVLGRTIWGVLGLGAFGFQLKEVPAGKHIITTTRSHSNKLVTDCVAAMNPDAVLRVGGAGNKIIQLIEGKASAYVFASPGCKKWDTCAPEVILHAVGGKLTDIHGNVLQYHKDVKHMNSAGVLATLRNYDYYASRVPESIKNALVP
UniProt O95757: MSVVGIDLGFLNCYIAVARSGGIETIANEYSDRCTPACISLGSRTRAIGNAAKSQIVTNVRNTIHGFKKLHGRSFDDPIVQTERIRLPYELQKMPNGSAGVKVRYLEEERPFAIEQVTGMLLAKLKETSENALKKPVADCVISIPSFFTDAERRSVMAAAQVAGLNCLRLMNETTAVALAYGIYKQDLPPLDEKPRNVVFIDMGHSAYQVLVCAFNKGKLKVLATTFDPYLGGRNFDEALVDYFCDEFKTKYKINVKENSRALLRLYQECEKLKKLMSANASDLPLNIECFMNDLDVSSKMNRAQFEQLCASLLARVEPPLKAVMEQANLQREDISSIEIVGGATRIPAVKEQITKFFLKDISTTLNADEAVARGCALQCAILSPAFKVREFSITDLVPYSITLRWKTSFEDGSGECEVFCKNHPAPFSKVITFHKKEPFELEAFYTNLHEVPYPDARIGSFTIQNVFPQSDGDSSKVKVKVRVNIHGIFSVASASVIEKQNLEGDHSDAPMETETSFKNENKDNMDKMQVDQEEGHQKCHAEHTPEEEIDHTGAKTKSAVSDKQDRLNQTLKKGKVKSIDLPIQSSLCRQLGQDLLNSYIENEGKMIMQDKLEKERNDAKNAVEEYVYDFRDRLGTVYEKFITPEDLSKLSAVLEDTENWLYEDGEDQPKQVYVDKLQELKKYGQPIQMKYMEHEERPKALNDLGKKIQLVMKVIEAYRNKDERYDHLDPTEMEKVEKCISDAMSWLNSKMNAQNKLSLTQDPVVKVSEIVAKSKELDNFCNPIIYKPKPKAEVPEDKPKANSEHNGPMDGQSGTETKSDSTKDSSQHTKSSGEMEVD
UniProt O94830: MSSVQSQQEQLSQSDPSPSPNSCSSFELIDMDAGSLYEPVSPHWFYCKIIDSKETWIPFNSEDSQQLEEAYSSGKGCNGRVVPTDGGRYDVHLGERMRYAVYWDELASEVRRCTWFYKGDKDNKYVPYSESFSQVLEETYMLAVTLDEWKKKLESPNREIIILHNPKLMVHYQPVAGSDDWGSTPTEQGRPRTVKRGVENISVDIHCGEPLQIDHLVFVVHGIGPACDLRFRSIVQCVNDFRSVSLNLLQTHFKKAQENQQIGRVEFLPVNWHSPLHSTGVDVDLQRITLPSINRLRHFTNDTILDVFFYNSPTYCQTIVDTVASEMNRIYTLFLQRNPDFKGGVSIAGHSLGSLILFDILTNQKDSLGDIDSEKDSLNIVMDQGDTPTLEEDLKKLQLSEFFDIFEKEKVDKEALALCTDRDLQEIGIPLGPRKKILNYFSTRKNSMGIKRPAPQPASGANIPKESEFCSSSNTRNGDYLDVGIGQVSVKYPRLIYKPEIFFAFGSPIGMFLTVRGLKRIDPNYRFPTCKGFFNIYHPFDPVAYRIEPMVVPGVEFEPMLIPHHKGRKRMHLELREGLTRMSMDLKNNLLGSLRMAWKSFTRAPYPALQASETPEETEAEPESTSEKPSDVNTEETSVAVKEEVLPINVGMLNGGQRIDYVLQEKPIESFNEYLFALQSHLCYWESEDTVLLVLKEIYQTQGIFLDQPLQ
UniProt O94813: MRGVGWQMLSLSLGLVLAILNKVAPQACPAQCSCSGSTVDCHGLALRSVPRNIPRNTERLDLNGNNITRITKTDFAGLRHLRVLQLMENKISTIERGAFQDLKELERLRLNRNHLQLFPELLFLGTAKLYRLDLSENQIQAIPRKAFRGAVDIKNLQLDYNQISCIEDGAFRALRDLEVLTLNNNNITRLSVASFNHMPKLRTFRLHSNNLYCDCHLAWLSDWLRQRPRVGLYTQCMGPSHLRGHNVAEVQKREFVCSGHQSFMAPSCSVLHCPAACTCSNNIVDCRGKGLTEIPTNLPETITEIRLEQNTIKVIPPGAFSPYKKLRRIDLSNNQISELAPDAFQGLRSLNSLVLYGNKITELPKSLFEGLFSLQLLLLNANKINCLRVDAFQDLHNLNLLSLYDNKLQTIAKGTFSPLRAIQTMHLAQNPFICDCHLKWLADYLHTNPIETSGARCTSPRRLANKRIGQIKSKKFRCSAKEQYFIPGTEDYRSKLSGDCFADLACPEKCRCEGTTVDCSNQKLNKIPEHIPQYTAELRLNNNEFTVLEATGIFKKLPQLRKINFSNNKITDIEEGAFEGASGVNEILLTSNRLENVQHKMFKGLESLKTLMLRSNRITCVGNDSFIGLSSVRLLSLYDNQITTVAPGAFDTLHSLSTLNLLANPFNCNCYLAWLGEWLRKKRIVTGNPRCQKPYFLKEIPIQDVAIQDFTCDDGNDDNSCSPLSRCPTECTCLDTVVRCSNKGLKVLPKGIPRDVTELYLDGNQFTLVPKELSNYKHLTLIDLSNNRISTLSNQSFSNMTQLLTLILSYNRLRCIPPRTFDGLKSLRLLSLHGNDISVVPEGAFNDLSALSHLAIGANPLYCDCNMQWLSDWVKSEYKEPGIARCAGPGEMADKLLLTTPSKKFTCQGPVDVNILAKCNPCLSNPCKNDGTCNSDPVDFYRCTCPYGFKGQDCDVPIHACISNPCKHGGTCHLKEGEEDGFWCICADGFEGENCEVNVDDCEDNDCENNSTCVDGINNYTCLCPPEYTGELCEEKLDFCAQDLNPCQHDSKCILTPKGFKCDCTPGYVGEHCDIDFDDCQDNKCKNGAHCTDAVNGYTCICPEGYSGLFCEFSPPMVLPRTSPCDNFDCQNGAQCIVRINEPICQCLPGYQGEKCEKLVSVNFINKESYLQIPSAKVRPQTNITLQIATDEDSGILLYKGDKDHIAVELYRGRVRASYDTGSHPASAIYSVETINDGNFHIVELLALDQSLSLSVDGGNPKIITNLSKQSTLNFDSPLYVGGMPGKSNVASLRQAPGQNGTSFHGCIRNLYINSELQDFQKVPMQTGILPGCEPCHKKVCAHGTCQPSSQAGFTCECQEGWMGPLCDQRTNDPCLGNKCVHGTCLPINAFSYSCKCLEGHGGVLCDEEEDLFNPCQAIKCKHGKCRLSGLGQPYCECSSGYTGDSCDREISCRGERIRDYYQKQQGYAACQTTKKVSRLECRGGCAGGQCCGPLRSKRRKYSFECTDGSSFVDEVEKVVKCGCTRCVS
UniProt O94885: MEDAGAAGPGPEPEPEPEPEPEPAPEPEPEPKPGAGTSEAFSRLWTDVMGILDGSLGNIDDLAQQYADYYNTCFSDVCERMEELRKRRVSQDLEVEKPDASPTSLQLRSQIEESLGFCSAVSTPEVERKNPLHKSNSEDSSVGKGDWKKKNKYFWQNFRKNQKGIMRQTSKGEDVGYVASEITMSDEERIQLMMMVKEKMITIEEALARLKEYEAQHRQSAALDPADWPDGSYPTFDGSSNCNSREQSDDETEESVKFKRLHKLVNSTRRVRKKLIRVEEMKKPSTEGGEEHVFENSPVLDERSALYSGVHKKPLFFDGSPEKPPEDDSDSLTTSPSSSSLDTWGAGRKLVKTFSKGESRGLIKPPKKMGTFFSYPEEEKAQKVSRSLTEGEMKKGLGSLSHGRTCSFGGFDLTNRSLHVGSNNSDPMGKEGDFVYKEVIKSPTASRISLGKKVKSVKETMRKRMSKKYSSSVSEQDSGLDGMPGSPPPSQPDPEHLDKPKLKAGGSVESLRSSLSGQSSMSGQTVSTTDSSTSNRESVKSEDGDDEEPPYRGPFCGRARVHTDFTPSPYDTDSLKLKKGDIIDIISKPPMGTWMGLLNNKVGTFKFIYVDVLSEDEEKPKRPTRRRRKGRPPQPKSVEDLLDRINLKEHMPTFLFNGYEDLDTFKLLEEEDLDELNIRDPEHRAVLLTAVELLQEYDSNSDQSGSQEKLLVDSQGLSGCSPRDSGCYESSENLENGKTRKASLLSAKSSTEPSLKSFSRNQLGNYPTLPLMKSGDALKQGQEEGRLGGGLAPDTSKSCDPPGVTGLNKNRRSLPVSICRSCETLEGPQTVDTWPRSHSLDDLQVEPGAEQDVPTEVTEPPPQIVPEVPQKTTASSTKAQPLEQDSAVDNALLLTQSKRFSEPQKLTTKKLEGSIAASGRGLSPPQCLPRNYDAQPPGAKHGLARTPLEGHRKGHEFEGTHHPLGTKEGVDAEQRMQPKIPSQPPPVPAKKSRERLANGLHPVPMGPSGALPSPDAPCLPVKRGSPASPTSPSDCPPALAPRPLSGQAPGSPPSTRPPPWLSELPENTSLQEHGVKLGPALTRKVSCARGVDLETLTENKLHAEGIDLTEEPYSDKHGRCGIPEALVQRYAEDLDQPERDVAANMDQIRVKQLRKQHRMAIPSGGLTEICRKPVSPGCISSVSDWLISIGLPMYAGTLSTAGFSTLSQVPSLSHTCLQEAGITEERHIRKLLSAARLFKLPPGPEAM
UniProt O94992, whole entry, looked up: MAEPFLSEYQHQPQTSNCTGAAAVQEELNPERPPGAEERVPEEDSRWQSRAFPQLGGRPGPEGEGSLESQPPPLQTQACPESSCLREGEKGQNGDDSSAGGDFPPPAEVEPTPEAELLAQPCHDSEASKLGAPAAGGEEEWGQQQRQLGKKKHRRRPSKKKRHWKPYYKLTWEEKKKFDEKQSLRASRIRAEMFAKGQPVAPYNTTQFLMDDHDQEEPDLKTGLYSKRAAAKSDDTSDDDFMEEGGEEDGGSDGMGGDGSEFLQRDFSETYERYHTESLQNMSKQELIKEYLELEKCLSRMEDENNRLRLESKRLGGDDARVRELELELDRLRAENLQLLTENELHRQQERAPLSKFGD
UniProt O95819: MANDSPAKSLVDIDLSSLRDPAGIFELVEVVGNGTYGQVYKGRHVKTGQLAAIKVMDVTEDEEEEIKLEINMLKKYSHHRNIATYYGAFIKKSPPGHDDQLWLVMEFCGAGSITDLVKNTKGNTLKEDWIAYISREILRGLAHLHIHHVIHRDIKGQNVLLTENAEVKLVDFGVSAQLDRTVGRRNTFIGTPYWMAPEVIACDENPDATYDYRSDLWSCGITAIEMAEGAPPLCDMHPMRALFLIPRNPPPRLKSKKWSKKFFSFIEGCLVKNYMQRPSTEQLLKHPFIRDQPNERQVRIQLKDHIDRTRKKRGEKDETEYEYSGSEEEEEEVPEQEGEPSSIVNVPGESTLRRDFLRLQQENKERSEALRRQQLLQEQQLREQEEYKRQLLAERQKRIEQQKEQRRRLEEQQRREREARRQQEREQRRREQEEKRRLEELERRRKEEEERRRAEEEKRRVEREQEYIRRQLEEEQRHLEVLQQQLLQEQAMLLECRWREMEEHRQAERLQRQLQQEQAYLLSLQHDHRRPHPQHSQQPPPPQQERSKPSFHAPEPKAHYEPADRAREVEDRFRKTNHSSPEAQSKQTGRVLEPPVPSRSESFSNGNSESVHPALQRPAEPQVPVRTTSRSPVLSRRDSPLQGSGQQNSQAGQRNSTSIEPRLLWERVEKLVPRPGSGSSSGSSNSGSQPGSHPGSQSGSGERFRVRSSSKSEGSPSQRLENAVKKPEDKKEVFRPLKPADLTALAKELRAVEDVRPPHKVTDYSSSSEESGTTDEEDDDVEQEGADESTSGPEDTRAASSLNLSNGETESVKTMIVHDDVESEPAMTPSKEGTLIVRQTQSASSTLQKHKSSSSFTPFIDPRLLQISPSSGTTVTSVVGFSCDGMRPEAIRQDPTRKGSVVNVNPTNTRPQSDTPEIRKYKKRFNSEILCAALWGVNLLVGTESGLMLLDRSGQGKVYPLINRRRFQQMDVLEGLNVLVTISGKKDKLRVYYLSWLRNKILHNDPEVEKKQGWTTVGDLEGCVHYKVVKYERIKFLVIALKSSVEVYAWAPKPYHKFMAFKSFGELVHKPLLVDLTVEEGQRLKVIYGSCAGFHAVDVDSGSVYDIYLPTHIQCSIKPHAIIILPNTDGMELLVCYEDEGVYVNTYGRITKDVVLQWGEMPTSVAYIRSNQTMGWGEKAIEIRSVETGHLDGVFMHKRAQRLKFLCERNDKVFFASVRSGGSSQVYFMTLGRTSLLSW
UniProt O95639, whole entry, looked up: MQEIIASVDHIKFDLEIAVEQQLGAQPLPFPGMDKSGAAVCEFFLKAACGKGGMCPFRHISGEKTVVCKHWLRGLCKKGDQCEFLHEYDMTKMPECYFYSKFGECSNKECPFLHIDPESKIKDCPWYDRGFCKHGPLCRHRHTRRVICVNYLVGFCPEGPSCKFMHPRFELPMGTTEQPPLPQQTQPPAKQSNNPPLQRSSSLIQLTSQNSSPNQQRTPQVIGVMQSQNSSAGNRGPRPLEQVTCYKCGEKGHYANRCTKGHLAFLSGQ

This list holds what a sample rich in targets with a hit left over. The data scatter; read single values as rough. The entries are a selection whose mix differs from that of the whole data set.

Experimental findings from the supplement of paper PMC11006884 are described below.

For GLS C525 (UniProt O94925), the “log2 ratio of iodoacetamide-alkyne labeling” value (“log2 ratio” below) was inactive: 0.064.

In the case of PPP1R3D C291 (UniProt O95685), the “log2 ratio” value was inactive: 0.000283.

Take IPO7 C90 (UniProt O95373): the “log2 ratio” value was inactive: -0.228.

Regarding BPNT1 C206 (UniProt O95861), the “log2 ratio” value is inactive: 0.286.

Consider HSPA4L C290 (UniProt O95757), for which the “log2 ratio” value was inactive: -0.0864.

Consider DDHD2 C470 (UniProt O94830), for which the “log2 ratio” value is inactive: 0.175.

As to ENO1 C389 (UniProt P06733), the “log2 ratio” value was inactive: -0.0554.

For the target UniProt O94813_C907, the “log2 ratio” value was inactive: 0.189.

With SVIL C178 (UniProt O95425), the “log2 ratio” value is inactive: -0.0271.

With ALDOA C339 (UniProt P04075), the “log2 ratio” value is inactive: -0.00708.

With SASH1 C822 (UniProt O94885), the “log2 ratio” value is inactive: 0.3.

For the target KIF4A C312 (UniProt O95239), the “log2 ratio” value was inactive: -0.313.

Take UniProt P07437_C129: the “log2 ratio” value was inactive: 0.126.

With OAT C150 (UniProt P04181), the “log2 ratio” value is inactive: 0.158.

On to HEXIM1 C84 (UniProt O94992), for which the “log2 ratio” value was inactive: 0.213.

For the target BPNT1 C42 (UniProt O95861), the “log2 ratio” value is inactive: 0.319.

As for MAP4K4 C202 (UniProt O95819), the “log2 ratio” value was inactive: 0.708.

In the case of KBTBD11 C257 (UniProt O94819), the “log2 ratio” value was inactive: -0.00346.

On to OAT C306 (UniProt P04181), for which the “log2 ratio” value is inactive: 0.0318.

On to MFN2 C348 (UniProt O95140), for which the “log2 ratio” value was inactive: 0.161.

Turning to HSPA4L C589 (UniProt O95757), the “log2 ratio” value is inactive: 0.137.

Regarding CPSF4 C110 (UniProt O95639), the “log2 ratio” value is inactive: -0.188.

For the target LDHB C294 (UniProt P07195), the “log2 ratio” value is inactive: 0.0848.

Consider GLUD1 C376 (UniProt P00367), for which the “log2 ratio” value is inactive: 0.107.

Turning to UniProt P00519_C1100, the “log2 ratio” value is inactive: 0.318.

In the case of AP2A1 C492 (UniProt O95782), the “log2 ratio” value is inactive: 0.0211.

With LDHA C185 (UniProt P00338), the “log2 ratio” value was inactive: -0.0339.

In the case of BAG3 C151 (UniProt O95817), the “log2 ratio” value is inactive: 0.151.

As for ZRANB2 C74 (UniProt O95218), the “log2 ratio” value was inactive: 0.158.

For the target ZFPL1 C230 (UniProt O95159), the “log2 ratio” value was inactive: 0.26.

As to ACSL3 C561 (UniProt O95573), the “log2 ratio” value was inactive: 0.00662.

Turning to UniProt O95071_C2314, the “log2 ratio” value was inactive: 0.109.

In the case of UniProt O94804_C947, the “log2 ratio” value is inactive: 0.194.

As to PFN1 C128 (UniProt P07737), the “log2 ratio” value is inactive: 0.206.

For the target ECD C557 (UniProt O95905), the “log2 ratio” value was inactive: 0.192.

As for HSPA4L C540 (UniProt O95757), the “log2 ratio” value was inactive: 0.354.
